This passage reports binding results from patent publication US20110126301A1.

In experiment [1] the target is T1, mouse 5B6 (Clec9A), membrane bound (mouse).
T1 sequence: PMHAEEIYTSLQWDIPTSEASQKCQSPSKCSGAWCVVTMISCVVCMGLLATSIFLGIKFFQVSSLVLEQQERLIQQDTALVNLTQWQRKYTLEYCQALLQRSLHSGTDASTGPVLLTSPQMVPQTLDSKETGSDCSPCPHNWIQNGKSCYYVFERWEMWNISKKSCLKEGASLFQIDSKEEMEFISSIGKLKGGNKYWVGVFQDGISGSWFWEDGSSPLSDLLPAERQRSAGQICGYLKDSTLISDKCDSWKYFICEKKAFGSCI
The experiment is described as follows: flow cytometry on 293T-m5B6 (FIG. 11B) and CHO-m5B6 (FIG. 11C).

For experiment [2] the target is unchanged. The experiment can be described thus: flow cytometry, biotinylated soluble protein on CHO-m5B6 cells; streptavidin-PE. (Flow cytometry measures light scatter and fluorescence of single cells or particles in a stream.)
Experiment [3] shares this target. The experiment is described as follows: flow cytometry on transiently transfected 293T cells; anti-FLAG 9H10-biotin and streptavidin-PE.
Experiment [4] has the same target. The experiment can be described thus: flow cytometry on transfected cells and fresh mouse hemopoietic cells.
For experiment [5] the target is unchanged. The experiment can be described thus: hybridoma supernatants screened by flow cytometry on CHO 5B6-FLAG and EL4 GFP-5B6 cells.
For experiment [6] the target is unchanged. The experiment is described as follows: flow cytometry on CHO-m5B6 (FIG. 11C); streptavidin-PE.

Results are given in words; binding and its absence hold for the method and conditions named. Some binding calls cover weakened binding; strength is not graded here. For part of these data: Where a sequence is shown, tags or fusion partners need not be part of it.

B1: soluble FLAG-tagged mouse 5B6 including stalk (receptor)
chain: ASISARQNSGLHHILDAQKMVWNHRGARQDYKDDDDKTREQQERLIQQDTALVNLTQWQRKYTLEYCQALLQRSLHSGTDASTGPVLLTSPQMVPQTLDSKETGSDCSPCPHNWIQNGKSCYYVFERWEMWNISKKSCLKEGASLFQIDSKEEMEFISSIGKLKGGNKYWVGVFQDGISGSWFWEDGSSPLSDLLPAERQRSAGQICGYLKDSTLISDKCDSWKYFICEKKAFGSCI
On to B1, for which the binding entry in experiment [1], in experiment [2] and in experiment [3] was “binds” throughout.

B2: rat mAb 24/04-10B4 (anti-5B6 / anti-Clec9A antibody) (antibody, V domains shown)
VH: AVQIVESGGGLVQPKESLKISCTASGFTFSNAAIYWVRQTPGKGLEWVGRIRTRPSKYATDYADSVRGRFTISRDDSKSMVYLQMDNLRTEDTAMYYCTPRATEDVPFYWGQGVMVTVSS
VL: DIVMTQTPSSQAVSAGEKVTMNCKSSQSVLYDENKKNYLAWYQQKSGQSPKLLIYWASTGESGVPDRFIGSGSGTDFTLTISSVQAEDLAVYYCQQYYDFPPTFGGGTKLELKR
Regarding B2, the binding entry in experiment [4] and in experiment [5] was “binds” throughout.

B3: soluble FLAG-tagged mouse 5B6 without stalk (receptor)
chain: ASISARQNSGLHHILDAQKMVWNHRGARQDYKDDDDKTRGSDCSPCPHNWIQNGKSCYYVFERWEMWNISKKSCLKEGASLFQIDSKEEMEFISSIGKLKGGNKYWVGVFQDGISGSWFWEDGSSPLSDLLPAERQRSAGQICGYLKDSTLISDKCDSWKYFICEKKAFGSCI
modifications: enzymatically biotinylated at the biotinylation consensus sequence
In the case of B3, the binding result in experiment [6] and in experiment [2] was “binds” throughout.

B4: soluble FLAG-tagged human 5B6 without stalk (receptor)
chain: ASISARQNSGLHHILDAQKMVWNHRGARQDYKDDDDKTRNSSPCPNNWIQNRESCYYVSEIWSIWHTSQENCLKEGSTLLQIESKEEMDFITGSLRKIKGSYDYWVGLSQDGHSGRWLWQDGSSPSPGLLPAERSQSANQVCGYVKSNSLLSSNCSTWKYFICEKYALRSSV
modifications: enzymatically biotinylated at the biotinylation consensus sequence
Take B4: the binding result in experiment [6] and in experiment [2] was “binds” throughout.
